Reference: the supplement of paper PMC10849652
This is one part of the list. Residues, ends and D or L forms follow the SMILES beside them. *: point of attachment. Cbz = O=C(OCc1ccccc1)*

The chains behind the UniProt entries cited, without tags or fusion partners. Where a name states a change or a piece, a line headed by the entry shows the natural chain unless it says otherwise.
MTHFD1, A0A384N5Y3, UniProt A0A384N5Y3, whole entry, looked up: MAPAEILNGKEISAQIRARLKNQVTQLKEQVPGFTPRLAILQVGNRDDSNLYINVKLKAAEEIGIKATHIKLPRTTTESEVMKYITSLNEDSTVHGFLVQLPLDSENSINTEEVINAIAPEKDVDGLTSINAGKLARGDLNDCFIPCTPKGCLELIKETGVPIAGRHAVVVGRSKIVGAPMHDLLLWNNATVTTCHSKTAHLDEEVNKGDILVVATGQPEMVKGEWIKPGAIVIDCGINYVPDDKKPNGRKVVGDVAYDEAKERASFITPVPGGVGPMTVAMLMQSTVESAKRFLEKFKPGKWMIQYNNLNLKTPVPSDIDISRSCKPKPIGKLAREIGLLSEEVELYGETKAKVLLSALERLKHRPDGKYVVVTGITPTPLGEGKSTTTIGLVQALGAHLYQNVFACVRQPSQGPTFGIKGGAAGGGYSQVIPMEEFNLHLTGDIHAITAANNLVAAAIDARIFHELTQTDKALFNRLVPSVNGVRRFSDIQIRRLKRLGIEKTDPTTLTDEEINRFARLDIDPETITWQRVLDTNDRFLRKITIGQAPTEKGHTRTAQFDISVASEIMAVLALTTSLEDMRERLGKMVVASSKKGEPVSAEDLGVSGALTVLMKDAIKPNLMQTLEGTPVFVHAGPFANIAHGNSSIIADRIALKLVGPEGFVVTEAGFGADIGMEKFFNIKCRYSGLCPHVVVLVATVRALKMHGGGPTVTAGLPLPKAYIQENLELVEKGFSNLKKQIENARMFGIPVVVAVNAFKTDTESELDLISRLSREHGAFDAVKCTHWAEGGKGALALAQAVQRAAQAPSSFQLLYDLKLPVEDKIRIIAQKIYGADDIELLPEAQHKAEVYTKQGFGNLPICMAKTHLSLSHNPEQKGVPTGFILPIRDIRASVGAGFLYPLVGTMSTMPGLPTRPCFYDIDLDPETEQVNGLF
UniProt P03897, whole entry, looked up: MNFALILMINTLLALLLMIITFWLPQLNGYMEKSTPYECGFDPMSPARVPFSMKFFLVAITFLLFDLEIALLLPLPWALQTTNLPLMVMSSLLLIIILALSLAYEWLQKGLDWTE
UniProt Q13126: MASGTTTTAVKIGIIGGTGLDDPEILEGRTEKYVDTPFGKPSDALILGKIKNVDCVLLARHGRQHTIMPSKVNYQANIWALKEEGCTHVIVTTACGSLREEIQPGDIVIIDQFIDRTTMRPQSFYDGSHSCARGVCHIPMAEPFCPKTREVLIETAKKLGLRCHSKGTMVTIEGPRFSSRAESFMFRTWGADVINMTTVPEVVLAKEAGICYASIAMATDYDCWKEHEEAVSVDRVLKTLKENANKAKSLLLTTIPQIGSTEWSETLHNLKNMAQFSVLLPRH
UniProt P13533, whole entry, looked up: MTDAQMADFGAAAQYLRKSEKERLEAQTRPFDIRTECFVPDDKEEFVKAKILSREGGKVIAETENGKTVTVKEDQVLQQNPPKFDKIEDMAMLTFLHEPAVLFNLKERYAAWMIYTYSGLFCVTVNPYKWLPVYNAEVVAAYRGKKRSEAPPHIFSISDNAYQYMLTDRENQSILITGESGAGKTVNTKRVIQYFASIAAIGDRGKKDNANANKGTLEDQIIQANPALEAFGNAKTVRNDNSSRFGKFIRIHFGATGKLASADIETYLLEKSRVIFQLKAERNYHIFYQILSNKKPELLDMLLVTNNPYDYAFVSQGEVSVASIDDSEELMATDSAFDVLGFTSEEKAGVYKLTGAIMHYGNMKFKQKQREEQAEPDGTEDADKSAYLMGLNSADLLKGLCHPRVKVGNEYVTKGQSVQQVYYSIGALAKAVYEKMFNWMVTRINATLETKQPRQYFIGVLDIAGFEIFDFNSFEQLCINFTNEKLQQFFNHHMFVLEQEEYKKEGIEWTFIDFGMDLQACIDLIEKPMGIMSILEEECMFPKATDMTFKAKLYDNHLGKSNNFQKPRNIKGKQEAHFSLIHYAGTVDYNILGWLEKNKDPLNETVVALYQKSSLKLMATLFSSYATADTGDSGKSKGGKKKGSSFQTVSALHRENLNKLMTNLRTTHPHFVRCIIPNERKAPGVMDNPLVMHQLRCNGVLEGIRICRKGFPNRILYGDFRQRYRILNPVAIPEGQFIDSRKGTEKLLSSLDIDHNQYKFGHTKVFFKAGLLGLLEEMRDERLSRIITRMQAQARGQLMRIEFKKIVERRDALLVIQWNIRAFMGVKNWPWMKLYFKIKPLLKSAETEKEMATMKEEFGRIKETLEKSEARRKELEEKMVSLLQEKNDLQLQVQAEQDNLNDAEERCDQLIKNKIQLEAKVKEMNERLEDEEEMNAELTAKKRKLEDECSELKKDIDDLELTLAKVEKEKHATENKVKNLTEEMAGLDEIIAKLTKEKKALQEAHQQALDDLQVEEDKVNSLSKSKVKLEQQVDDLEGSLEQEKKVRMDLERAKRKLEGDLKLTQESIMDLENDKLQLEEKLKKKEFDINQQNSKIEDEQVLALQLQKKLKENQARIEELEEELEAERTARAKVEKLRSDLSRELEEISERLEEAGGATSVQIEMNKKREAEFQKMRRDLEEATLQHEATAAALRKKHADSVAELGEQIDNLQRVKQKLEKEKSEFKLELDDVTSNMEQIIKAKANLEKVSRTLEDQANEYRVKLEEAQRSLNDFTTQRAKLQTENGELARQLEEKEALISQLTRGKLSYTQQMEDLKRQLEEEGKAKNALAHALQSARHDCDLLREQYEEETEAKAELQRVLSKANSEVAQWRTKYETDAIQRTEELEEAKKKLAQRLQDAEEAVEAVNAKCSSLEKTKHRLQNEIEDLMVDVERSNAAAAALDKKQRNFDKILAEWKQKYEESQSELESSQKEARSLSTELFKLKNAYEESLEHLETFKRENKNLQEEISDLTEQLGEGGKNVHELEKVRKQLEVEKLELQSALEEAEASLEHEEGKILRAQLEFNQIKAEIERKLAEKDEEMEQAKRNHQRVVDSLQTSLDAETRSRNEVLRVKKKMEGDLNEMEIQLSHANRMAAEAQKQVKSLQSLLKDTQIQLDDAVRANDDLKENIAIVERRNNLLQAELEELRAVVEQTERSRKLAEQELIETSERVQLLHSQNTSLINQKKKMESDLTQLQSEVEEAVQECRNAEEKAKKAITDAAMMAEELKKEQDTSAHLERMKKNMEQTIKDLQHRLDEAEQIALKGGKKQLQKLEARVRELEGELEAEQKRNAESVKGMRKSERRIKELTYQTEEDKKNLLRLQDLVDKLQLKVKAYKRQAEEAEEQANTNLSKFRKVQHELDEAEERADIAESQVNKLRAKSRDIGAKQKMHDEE
UniProt O75570: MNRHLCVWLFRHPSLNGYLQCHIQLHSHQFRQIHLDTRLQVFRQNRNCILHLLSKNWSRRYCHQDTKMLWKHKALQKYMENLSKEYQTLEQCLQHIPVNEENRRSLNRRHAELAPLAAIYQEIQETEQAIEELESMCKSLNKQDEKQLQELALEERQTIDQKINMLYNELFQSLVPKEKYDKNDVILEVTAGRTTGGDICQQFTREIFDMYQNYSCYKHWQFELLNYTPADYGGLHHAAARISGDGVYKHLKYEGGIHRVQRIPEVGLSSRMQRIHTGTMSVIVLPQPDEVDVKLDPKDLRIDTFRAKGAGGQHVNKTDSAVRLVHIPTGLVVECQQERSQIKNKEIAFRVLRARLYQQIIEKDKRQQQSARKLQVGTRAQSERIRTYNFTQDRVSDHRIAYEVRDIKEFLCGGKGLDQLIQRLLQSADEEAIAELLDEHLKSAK
UniProt Q2M296: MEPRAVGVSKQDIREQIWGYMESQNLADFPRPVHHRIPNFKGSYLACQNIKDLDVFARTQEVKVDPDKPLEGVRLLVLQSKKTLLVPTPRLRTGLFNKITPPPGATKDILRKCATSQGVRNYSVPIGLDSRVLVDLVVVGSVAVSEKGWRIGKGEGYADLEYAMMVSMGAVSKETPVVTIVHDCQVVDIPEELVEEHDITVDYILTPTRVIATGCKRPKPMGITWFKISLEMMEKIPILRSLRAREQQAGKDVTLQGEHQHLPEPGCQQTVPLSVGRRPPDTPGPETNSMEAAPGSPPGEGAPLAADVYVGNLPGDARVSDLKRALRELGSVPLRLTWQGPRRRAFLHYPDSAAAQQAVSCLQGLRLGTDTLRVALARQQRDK
UniProt Q15746, whole entry, looked up: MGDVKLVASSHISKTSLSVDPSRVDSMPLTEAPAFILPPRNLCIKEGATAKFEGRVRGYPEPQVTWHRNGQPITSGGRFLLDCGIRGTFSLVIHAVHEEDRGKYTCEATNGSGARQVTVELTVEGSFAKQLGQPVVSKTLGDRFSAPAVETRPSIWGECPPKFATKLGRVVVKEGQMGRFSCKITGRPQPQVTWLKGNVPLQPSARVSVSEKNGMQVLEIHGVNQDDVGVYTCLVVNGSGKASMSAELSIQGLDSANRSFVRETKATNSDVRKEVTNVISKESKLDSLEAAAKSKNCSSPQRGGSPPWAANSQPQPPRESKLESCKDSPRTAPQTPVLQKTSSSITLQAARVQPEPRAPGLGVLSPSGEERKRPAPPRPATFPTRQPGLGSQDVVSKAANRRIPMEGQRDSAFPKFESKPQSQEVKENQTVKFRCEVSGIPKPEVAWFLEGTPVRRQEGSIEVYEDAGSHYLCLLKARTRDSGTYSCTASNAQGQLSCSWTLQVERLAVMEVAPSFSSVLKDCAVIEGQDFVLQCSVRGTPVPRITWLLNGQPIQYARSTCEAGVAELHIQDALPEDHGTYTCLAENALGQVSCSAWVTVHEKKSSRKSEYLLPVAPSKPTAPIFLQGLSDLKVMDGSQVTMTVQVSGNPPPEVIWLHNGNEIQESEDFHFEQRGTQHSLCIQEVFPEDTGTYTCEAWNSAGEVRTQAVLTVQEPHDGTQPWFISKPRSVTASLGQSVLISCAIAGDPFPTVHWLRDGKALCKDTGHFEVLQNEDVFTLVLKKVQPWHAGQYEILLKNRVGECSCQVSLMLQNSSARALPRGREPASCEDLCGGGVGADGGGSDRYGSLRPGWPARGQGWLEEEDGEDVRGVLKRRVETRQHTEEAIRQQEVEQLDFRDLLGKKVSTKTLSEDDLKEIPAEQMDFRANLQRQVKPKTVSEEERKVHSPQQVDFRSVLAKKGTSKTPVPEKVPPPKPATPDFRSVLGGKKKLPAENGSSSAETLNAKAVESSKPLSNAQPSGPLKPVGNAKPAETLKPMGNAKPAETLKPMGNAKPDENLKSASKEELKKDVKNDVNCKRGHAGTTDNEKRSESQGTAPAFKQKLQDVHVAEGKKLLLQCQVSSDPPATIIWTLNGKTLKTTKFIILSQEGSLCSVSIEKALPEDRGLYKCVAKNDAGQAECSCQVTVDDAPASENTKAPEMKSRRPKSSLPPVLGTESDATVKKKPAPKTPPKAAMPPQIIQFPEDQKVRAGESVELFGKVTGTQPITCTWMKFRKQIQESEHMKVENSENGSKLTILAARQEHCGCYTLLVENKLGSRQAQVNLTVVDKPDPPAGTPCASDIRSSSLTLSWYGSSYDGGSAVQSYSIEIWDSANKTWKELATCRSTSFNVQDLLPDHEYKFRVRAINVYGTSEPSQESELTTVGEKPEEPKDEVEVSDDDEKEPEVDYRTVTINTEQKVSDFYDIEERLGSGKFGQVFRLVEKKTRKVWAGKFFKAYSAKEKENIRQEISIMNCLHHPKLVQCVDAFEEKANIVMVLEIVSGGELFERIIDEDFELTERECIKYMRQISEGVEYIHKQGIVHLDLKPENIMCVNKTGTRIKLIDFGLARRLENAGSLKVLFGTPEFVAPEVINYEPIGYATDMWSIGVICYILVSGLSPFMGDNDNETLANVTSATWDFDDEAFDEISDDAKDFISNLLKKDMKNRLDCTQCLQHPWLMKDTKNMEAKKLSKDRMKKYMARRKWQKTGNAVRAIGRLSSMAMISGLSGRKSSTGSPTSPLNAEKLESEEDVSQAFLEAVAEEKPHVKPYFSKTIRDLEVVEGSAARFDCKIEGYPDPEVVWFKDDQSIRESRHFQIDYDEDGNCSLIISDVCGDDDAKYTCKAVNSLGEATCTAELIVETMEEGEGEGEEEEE
UniProt Q6P1R3: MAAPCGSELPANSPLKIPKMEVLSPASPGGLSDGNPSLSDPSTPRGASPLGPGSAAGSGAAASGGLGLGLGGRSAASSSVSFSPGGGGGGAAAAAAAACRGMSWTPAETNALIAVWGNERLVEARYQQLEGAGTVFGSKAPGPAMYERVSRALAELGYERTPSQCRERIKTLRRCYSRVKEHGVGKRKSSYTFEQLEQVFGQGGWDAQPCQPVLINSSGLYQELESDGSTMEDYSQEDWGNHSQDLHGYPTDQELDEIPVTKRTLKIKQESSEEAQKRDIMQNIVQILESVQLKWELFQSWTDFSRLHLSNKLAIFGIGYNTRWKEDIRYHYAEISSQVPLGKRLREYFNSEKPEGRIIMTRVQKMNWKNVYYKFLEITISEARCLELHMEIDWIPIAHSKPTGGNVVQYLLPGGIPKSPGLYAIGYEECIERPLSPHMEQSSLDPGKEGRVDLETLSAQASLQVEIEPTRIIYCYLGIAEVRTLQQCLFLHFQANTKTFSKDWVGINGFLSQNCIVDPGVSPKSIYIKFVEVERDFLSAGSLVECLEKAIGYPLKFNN

How the values were obtained:
Experiment in all cases: log2 fold change, soluble protein after heating vs DMSO (PISA); higher = thermal stabilisation; K562 cells, 10 uM, 30 min; active = over 0.2 and 3.5 SD of the protein, either way, in both replicates (recomputed)
[1] = compound: C/C(=N\NC(=O)C1=CC(=CC=C1)S(=O)(=O)N2CCOCC2)/C3=C(C=CC(=C3)Cl)O
How it was run: (§1)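 For each measurement, 10 μM compound was applied for 30 min to K562 cells at 2×10^6 cells/mL. Aliquots were heated for 3 min across 48°C-58°C, pooled, and extracted in PBS with 0.5% NP-40 at 4°C; the supernatant after 21,000xg for 90 min was soluble protein. This was quantified by TMTpro 16plex LC-MS/MS with channel sums equalised, and thermal stability was reported relative to control samples from duplicates, on a log2 fold-change scale.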

[2] = compound: C1=CC(=C(C=C1Cl)C2=NC3=NC=CN=C3C(=N2)NC4=CC=NC=C4)F
How it was run: as §1

[3] = compound: C1=CC2=C(C=CC(=C2)/C=C\3/C(=O)NC(=NCC4=CC=CS4)S3)N=C1
How it was run: as §1

[4] = compound: C1=CC2=NC=CN=C2C=C1/C=C/3\C(=O)NC(=O)S3
How it was run: as §1

[5] = compound: C1=CC=C(C=C1)C2=NC(=C(N2)C3=CC=NC=C3)C4=CC(=C(C=C4)Cl)O
How it was run: as §1

[6] = compound: C1=CC=C2C(=C1)C3=NNC4=CC=CC(=C43)C2=O
How it was run: as §1

[7] = compound: C1CCN(C1)C(=O)NC2=CC=CC(=C2)NC3=NC=C(C(=N3)NCCC4=CN=CN4)Br
How it was run: as §1

[8] = compound: C1CN(CCC1(CC2=CC=C(C=C2)Cl)N)C3=NC=NC4=C3C=CN4
How it was run: as §1

[9] = compound: C=CC(=O)N1CCC[C@@H](n2nc(-c3ccc(Oc4ccccc4)cc3)c3c(N)ncnc32)C1 [ibrutinib]
How it was run: as §1

[10] = compound: CC(=O)c1cnc2ccc(-c3cc(Cl)c(O)c(Cl)c3)nc2c1N[C@H]1CC[C@H](CN(C)C)CC1
How it was run: as §1

[11] = compound: CC(C)(C)Cn1c(N)nc2ccc(-c3[nH]c(C(C)(C)C)nc3-c3ccc(F)cc3)nc21 [ralimetinib]
How it was run: as §1

[12] = compound: CC(C)(O)CC(=O)NCCn1ccc2ncnc(Nc3ccc(Oc4cccc(C(F)(F)F)c4)c(Cl)c3)c21
How it was run: as §1

[13] = compound: CC(C)C[C@@H](C=O)NC(=O)[C@H](CC(C)C)NC(=O)[C@H](CC(C)C)NC(=O)OCc1ccccc1
How it was run: as §1

[14] = compound: CC1=C(C2=C(C=C1)C(=O)C3=CC=CC=C3N2CCCN)C
How it was run: as §1

[15] = compound: C#Cc1cccc(Nc2ncnc3cc(OCCOC)c(OCCOC)cc23)c1 [erlotinib]
How it was run: as §1

[16] = compound: C1=CC(=CC=C1C2=NC3=C(N2)C=C(C=C3)C(=O)N)OC4=CC=C(C=C4)Cl
How it was run: as §1

[17] = compound: C1COCCN1CCN2C3=CC=CC=C3N=C2NC(=O)C4=CC(=CC=C4)[N+](=O)[O-] [IRAK-1-4 Inhibitor I]
How it was run: as §1

[18] = compound: CC(C)C1=C2N=C(C=C(N2N=C1)NCC3=CC=CC=C3)NCCCCCCN
How it was run: as §1

[19] = compound: CC(C)N(C[C@H]1O[C@@H](n2cnc3c(N)ncnc32)[C@H](O)[C@@H]1O)[C@H]1C[C@@H](CCc2nc3cc(C(C)(C)C)ccc3[nH]2)C1 [pinometostat]
How it was run: as §1

[20] = compound: CC1=C(C(CC(=O)N1)C2=CC=C(C=C2)C(F)(F)F)C(=O)NC3=C(C=C4C(=C3)C=NN4)F
How it was run: as §1

Measured: log2 fold change

MTHFD1, A0A384N5Y3
inactive: [1] 0.056 | [2] 0.081 | [3] 0.146 | [4] -0.06 | [5] 0.036 | [6] 0.01 | [7] -0.004 | [8] 0.033 | [9] 0.002 | [10] -0.085 | [11] 0 | [12] -0.034 | [13] -0.008 | [14] 0.049

MT-ND3 (UniProt P03897)
inactive: [15] -0.123 | [16] -0.156 | [4] 0.344 | [5] -0.093 | [17] 0.045 | [9] -0.302 | [11] 0.097 | [18] 0.101 | [13] -0.039 | [19] -0.006 | [20] 0.025

MRPS36 (UniProt D6R941)
inactive: [2] 0.055 | [12] 0.124 | [20] 0.094

2 records drawn at random from the list so far:
MT-ND3 (UniProt P03897)
inactive: [15] -0.123 | [16] -0.156 | [4] 0.344 | [5] -0.093 | [17] 0.045 | [9] -0.302 | [11] 0.097 | [18] 0.101 | [13] -0.039 | [19] -0.006 | [20] 0.025

MRPS36 (UniProt D6R941)
inactive: [2] 0.055 | [12] 0.124 | [20] 0.094

More results:

MTAP isoform 2 (UniProt Q13126)
inactive: [4] 0.068 | [17] -0.337 | [9] 0.048 | [19] 0.042

MYH15 (UniProt Q9Y2K3)
inactive: [4] 0.392 | [9] 0.763 | [20] -0.117

MTFMT (UniProt Q96DP5)
inactive: [2] -0.288 | [7] 0.14 | [8] -0.092 | [12] 0.253 | [14] 0.126

MTERF3 (UniProt Q96E29)
inactive: [15] -0.011 | [16] -0.019 | [4] 0.069 | [5] 0.02 | [7] -0.173 | [8] 0.046 | [9] 0.049 | [11] 0.088 | [18] 0.014 | [13] -0.069 | [14] -0.262

MYH6 (UniProt P13533)
inactive: [15] 0.24 | [2] 0.039 | [16] -0.121 | [12] -0.02 | [18] 0.066 | [20] -0.026

MTSS1 isoform 5 (UniProt O43312)
inactive: [1] 0.057 | [3] 0.129 | [6] -0.11 | [7] 0.032 | [8] -0.199 | [10] -0.194 | [14] 0.226

MTDH (UniProt E5RJU9)
inactive: [17] -0.053 | [19] 0.215

MTRF1 (UniProt O75570)
inactive: [1] 0.18 | [3] -0.116 | [6] -0.067 | [10] 0.023

MTMR4 (UniProt Q9NYA4)
inactive: [15] -0.052 | [16] 0.179 | [5] -0.252 | [17] 0.136 | [11] -0.195 | [18] 0.052 | [13] 0.028 | [19] 0.206

MTURN (UniProt Q8N3F0)
inactive: [4] 0.042 | [7] 0.085 | [8] -0.413 | [17] -0.012 | [9] 0.126 | [19] -0.123 | [14] -0.012

MTHFSD (UniProt Q2M296)
inactive: [1] -0.061 | [3] -0.017 | [6] 0.04 | [7] -0.077 | [8] 0.091 | [10] 0.02 | [14] 0.081

MYLK (UniProt Q15746)
inactive: [15] 0.25 | [16] -0.146 | [4] -0.005 | [5] 0.291 | [7] 0.008 | [8] -0.066 | [17] -0.051 | [9] -0.101 | [11] 0.524 | [18] -0.207 | [13] -0.181 | [19] -0.051 | [14] -0.136

MSANTD2 (UniProt Q6P1R3)
inactive: [2] 0.012 | [7] -0.081 | [8] -0.052 | [12] 0.047 | [14] 0.012

MT-CO1 (UniProt P00395)
inactive: [15] -0.087 | [1] -0.076 | [16] 0.025 | [3] 0.214 | [4] 0.004 | [5] 0.038 | [6] -0.049 | [7] -0.092 | [8] 0.011 | [17] 0.083 | [9] 0.054 | [10] 0.38 | [11] -0.082 | [18] 0.017 | [13] -0.012 | [19] -0.066 | [20] -0.015 | [14] -0.149

MTHFSD isoform 3 (UniProt Q2M296)
inactive: [15] -0.078 | [1] -0.091 | [16] -0.011 | [3] -0.035 | [4] 0.001 | [5] -0.121 | [6] 0.005 | [7] 0.011 | [8] -0.096 | [17] -0.017 | [9] 0.02 | [10] 0.049 | [11] 0.057 | [18] 0.019 | [13] 0.034 | [19] 0.108 | [14] 0

MTHFD1L (UniProt B7ZM99)
inactive: [15] -0.093 | [1] 0.044 | [16] 0.051 | [3] 0.052 | [4] -0.042 | [5] 0.05 | [6] -0.014 | [9] 0.024 | [10] -0.08 | [11] -0.034 | [18] 0.081 | [13] -0.024 | [20] -0.098

MT-ND6 (UniProt P03923)
inactive: [1] -0.039 | [3] -0.132 | [4] -0.013 | [6] -0.258 | [7] 0.111 | [8] -0.05 | [17] -0.11 | [9] -0.009 | [10] -0.259 | [19] 0.209 | [20] -0.107 | [14] -0.12
